# PubChem BioAssay AID1259405 | NCATS | 2018
# Screen: 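Knock-downs that lift recombinant protein yield in hamster ovary cells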 (primary screen)
# System: Chinese hamster CHO-K1 ovary cells with stable secreted eGFP expression
# Reagent: single siRNA against mouse genes, 0.8 pmol siRNA per well (2 µl of 400 nM stock)
# Time to read-out: 3 days
# Read-out: 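Percent of the per-plate non-targeting control median for intracellular GFP per well by laser scanning cytometry and for cell viability by ATP luminescence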
# Direction: GFP, % of control: higher = more GFP per well, higher productivity; viability (ATP), % of control: higher = more viable cells (more ATP)
# Rule for the call: 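Called active when intracellular GFP, relative to negative control, is at or above 120%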
# Here is a random part of about 50,000 reagents. About 4,000 of all reagents (8%) count as active. 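Mouse siRNA library applied to hamster cells; one well for each siRNA.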 No sequences are given here.
target gene,PubChem SID,"GFP, % of control","viability (ATP), % of control",activity call
Aqp8 (aquaporin 8),SID363574753,76.1,73.3,inactive
Aqp8 (aquaporin 8),SID363575809,53.2,41,inactive
Aqp8 (aquaporin 8),SID363580385,66.5,75,inactive
Trip12 (thyroid hormone receptor interactor 12),SID363541706,49.3,50,inactive
Trip12 (thyroid hormone receptor interactor 12),SID363553298,72.6,70.1,inactive
Trip12 (thyroid hormone receptor interactor 12),SID363566622,67.8,52,inactive
Ebpl (emopamil binding protein-like),SID363568880,108,94.2,inactive
Ebpl (emopamil binding protein-like),SID363576272,107,101,inactive
Ebpl (emopamil binding protein-like),SID363579088,74.7,79.2,inactive
Flt3l (FMS-like tyrosine kinase 3 ligand),SID363582409,122,85.9,active
Flt3l (FMS-like tyrosine kinase 3 ligand),SID363584169,79.8,61.8,inactive
Adgrl1 (adhesion G protein-coupled receptor L1),SID363544275,80.8,62.5,inactive
Adgrl1 (adhesion G protein-coupled receptor L1),SID363550603,78.1,90.4,inactive
Adgrl1 (adhesion G protein-coupled receptor L1),SID363557152,66.3,72.1,inactive
Rex2 (reduced expression 2),SID363540963,55,64.8,inactive
Rex2 (reduced expression 2),SID363555590,63.4,72.8,inactive
Rex2 (reduced expression 2),SID363565879,104,95.6,inactive
"Rlim (ring finger protein, LIM domain interacting)",SID363547522,7.15,54.1,inactive
"Rlim (ring finger protein, LIM domain interacting)",SID363558291,59.4,75.6,inactive
"Rlim (ring finger protein, LIM domain interacting)",SID363560049,85.6,95.2,inactive
Nat2 (N-acetyltransferase 2 (arylamine N-acetyltransferase)),SID363570561,103,87.1,inactive
Nat2 (N-acetyltransferase 2 (arylamine N-acetyltransferase)),SID363579361,62.1,93.3,inactive
Nat2 (N-acetyltransferase 2 (arylamine N-acetyltransferase)),SID363583233,97.5,96.4,inactive
Myom2 (myomesin 2),SID363541467,92.6,95.3,inactive
Myom2 (myomesin 2),SID363556094,56.6,74.5,inactive
Myom2 (myomesin 2),SID363566383,81,93.4,inactive
H2bc27 (H2B clustered histone 27),SID363540369,117,117,inactive
H2bc27 (H2B clustered histone 27),SID363542121,72.2,59.5,inactive
H2bc27 (H2B clustered histone 27),SID363567037,140,99,active
Angpt2 (angiopoietin 2),SID363573453,70.8,101,inactive
Angpt2 (angiopoietin 2),SID363588692,86.1,67.1,inactive
"Ina (internexin neuronal intermediate filament protein, alpha)",SID363540935,51.1,73.3,inactive
"Ina (internexin neuronal intermediate filament protein, alpha)",SID363555562,56.8,65,inactive
"Ina (internexin neuronal intermediate filament protein, alpha)",SID363565851,85.9,79.9,inactive
Or7g25 (olfactory receptor family 7 subfamily G member 25),SID363554517,78,71.1,inactive
Or7g25 (olfactory receptor family 7 subfamily G member 25),SID363567964,61.3,47.7,inactive
Or7g25 (olfactory receptor family 7 subfamily G member 25),SID363586023,66.4,76.1,inactive
Rbpms (RNA binding protein gene with multiple splicing),SID363546052,51.8,41,inactive
Rbpms (RNA binding protein gene with multiple splicing),SID363549565,103,125,inactive
Rbpms (RNA binding protein gene with multiple splicing),SID363563371,71.7,44.5,inactive
Smtnl1 (smoothelin-like 1),SID363540573,74.6,82.1,inactive
Smtnl1 (smoothelin-like 1),SID363543024,79.1,90.1,inactive
Smtnl1 (smoothelin-like 1),SID363552517,43.8,34.1,inactive
Slc6a6,SID363574748,82.4,83.4,inactive
Slc6a6,SID363575804,109,84.3,inactive
Slc6a6,SID363580380,93.9,68.3,inactive
Chsy3 (chondroitin sulfate synthase 3),SID363545199,110,101,inactive
Chsy3 (chondroitin sulfate synthase 3),SID363548712,88.9,90.8,inactive
Chsy3 (chondroitin sulfate synthase 3),SID363562518,51.8,52.3,inactive
Emid1 (EMI domain containing 1),SID363553769,75.4,70.7,inactive
Emid1 (EMI domain containing 1),SID363561726,86,61,inactive
Emid1 (EMI domain containing 1),SID363565464,98,63.8,inactive
Ddi2 (DNA-damage inducible protein 2),SID363547365,78,76.6,inactive
Ddi2 (DNA-damage inducible protein 2),SID363558134,70.6,67.2,inactive
Ddi2 (DNA-damage inducible protein 2),SID363559892,73.8,54.3,inactive
Arl2bp (ADP-ribosylation factor-like 2 binding protein),SID363546834,59.9,53.4,inactive
Arl2bp (ADP-ribosylation factor-like 2 binding protein),SID363548590,72.7,87.7,inactive
Arl2bp (ADP-ribosylation factor-like 2 binding protein),SID363560768,74.1,61.5,inactive

7 successive records already listed, for reference:
target gene,PubChem SID,"GFP, % of control","viability (ATP), % of control",activity call
Chsy3 (chondroitin sulfate synthase 3),SID363562518,51.8,52.3,inactive
Emid1 (EMI domain containing 1),SID363553769,75.4,70.7,inactive
Emid1 (EMI domain containing 1),SID363561726,86,61,inactive
Emid1 (EMI domain containing 1),SID363565464,98,63.8,inactive
Ddi2 (DNA-damage inducible protein 2),SID363547365,78,76.6,inactive
Ddi2 (DNA-damage inducible protein 2),SID363558134,70.6,67.2,inactive
Ddi2 (DNA-damage inducible protein 2),SID363559892,73.8,54.3,inactive
